Measured values reported in PubChem BioAssay (EPA / NIEHS).
Inconclusive means that the source gave no clear call. Such entries were picked first, then a sample of the others. Potencies beside an inconclusive call are fits to weak or partial responses and may not hold up. The source made the active and inactive calls. Rule for the calls: active = hit-call score of the fitted dose curve at least 0.9, where 1 is the maximum; inconclusive = response in the unintended direction; inactive = score below 0.9.

By UniProt entry, the sequences of proteins in these tests, tags left out.
UniProt P31424, whole entry, looked up: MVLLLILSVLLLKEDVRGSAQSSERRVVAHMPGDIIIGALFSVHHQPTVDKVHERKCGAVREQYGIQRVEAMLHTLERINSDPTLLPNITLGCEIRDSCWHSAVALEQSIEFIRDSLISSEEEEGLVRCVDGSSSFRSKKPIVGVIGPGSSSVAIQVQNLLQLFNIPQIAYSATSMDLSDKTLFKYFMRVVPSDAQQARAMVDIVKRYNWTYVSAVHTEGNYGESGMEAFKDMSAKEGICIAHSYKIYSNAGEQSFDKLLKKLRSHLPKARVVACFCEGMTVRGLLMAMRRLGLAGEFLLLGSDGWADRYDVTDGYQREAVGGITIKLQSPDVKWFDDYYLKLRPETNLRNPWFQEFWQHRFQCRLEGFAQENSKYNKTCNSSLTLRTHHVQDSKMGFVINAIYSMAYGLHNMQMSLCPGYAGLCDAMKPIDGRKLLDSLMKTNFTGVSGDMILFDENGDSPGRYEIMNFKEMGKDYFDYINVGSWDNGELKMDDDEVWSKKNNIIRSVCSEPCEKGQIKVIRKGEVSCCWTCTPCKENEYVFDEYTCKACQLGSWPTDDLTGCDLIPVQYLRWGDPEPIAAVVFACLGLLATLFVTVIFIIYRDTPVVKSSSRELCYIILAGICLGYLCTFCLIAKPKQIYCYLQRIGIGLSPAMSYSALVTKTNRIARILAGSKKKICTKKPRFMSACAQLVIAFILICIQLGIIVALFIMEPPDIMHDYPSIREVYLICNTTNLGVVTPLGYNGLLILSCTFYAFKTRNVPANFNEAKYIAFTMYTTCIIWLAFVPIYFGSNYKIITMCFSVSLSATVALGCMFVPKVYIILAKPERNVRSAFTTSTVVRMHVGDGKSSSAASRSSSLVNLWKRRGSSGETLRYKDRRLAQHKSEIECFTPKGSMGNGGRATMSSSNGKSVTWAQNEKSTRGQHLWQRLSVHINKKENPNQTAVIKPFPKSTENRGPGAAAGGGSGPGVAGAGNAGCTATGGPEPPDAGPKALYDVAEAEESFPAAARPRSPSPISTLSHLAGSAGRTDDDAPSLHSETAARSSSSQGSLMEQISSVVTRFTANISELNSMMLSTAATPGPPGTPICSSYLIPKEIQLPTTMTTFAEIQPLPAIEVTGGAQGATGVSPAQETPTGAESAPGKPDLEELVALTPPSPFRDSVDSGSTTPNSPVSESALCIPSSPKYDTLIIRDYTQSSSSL

molecular target: rat Glutamate Metabotropic Receptor 5 (MGluR5), Grm5 (gene 24418) (UniProt P31424); test: NVS_GPCR_rmMGluR5: NovaScreen (NVS) G Protein-Coupled Receptor Assay for rat Glutamate Metabotropic Receptor 5 (MGluR5) (AID 2283307)
Experimental: NVS_GPCR_rmMGluR5 is a biochemical, single-readout assay that uses extracted gene-proteins from Rat whole brain in a tissue-based cell-free assay. Measurements were taken 1.5 hours after chemical dosing in a 48-well plate.NVS_GPCR_rmMGluR5 is one of one assay component(s) measured or calculated from the NVS_GPCR_rmMGluR5 assay. It is designed to make measurements of radioligand binding, a form of binding reporter, as detected with scintillation counting signals by Filter-based radiodetection technology.Data from the assay component NVS_GPCR_rmMGluR5 was analyzed into 1 assay endpoint. This assay endpoint, NVS_GPCR_rmMGluR5, was analyzed in the positive analysis fitting direction relative to DMSO as the negative control and baseline of activity. Using a type of binding reporter, loss-of-signal activity can be used to understand changes in the binding as they relate to the gene Grm5. Furthermore, this assay endpoint can be referred to as a primary readout, because the performed assay has only produced 1 assay endpoint. To generalize the intended target to other relatable targets, this assay endpoint is annotated to the gpcr intended target family, where the subfamily is metabotropic glutamate receptor.
Binding assays used specific radioligands (tritiated, iodinated) with non-radioactive competitive displacement ligands in agonist or antagonist protocols (as indicated) and various reference compounds and inhibitors to titrate specific binding to receptors and transporters. Most enzyme assays (CYPs, kinases, phosphatases, proteases, HDACs) used recombinant protein and specific substrates (fluorescence mostly, some colorimetric and radioactive) and inhibitors, followed by a biochemical separation of substrate and product. All assays for the biochemical HTS were initially run in duplicate at a single concentration (10 uM for CYP450 assays and 25 uM for all others). Assay-chemical combinations meeting a pre-defined threshold (e.g., 30% inhibition and other criteria defined below) were then run in singleton concentration-response format with maximum concentration of 20 uM for CYPs and 50 uM for all others. Each assay was run with positive and negative controls, and concurrent controls on every plate. The follow-up (secondary) screen tested active chemical-pairs in concentration series, as well as a few additional assays not tested in the primary screen, some selected negative inactives, and several cases re-run in the concentration series for confirmatory purposes.

AC50, inconclusive:
COC(=O)CSc1cc(N=c2sc(=O)n3n2CCCC3)c(F)cc1Cl 14.8 µM, CCc1nn(C2CCCCC2)c2cc(C3(C#N)CCC(C(=O)O)CC3)ccc12 (stereo unspecified) 25 µM, O=C(NS(=O)(=O)/C=C/c1cccs1)c1ccc(F)cc1Br 25 µM, CCCCCCCCCCCCc1ccccc1 25 µM, O=C(N[C@@H](Cc1ccccc1)[C@@H](O)C(=O)N1C[C@@H](O)[C@@H](O)C1)c1cc2cc(Cl)ccc2[nH]1 25 µM, Cn1cnc2c1c(=O)[nH]c(=O)n2C 10.5 µM, O=C(O)Cc1cc(I)c(Oc2ccc(O)c(I)c2)c(I)c1 25 µM, CCCC[C@H]1CN(CC2CCOCC2)C(=O)OC12CCN(C1(C)CCN(C(=O)c3c(C)ncnc3C)CC1)CC2 37.8 µM, CCCCc1nc2cccnc2n1Cc1ccc(-c2ccccc2-c2nnn[nH]2)cc1 25 µM

outcome, inactive:
Cc1occc1C(=O)Nc1ccc(C(=O)N2CCC(F)(F)/C(=C\C(=O)N3CCC(N4CCCCC4)CC3)c3ccccc32)cc1, OC1CCCCC1
